Reference: paper PMC12455829

Chains of the proteins cited; added tags and fusions are not shown.
UniProt P51532: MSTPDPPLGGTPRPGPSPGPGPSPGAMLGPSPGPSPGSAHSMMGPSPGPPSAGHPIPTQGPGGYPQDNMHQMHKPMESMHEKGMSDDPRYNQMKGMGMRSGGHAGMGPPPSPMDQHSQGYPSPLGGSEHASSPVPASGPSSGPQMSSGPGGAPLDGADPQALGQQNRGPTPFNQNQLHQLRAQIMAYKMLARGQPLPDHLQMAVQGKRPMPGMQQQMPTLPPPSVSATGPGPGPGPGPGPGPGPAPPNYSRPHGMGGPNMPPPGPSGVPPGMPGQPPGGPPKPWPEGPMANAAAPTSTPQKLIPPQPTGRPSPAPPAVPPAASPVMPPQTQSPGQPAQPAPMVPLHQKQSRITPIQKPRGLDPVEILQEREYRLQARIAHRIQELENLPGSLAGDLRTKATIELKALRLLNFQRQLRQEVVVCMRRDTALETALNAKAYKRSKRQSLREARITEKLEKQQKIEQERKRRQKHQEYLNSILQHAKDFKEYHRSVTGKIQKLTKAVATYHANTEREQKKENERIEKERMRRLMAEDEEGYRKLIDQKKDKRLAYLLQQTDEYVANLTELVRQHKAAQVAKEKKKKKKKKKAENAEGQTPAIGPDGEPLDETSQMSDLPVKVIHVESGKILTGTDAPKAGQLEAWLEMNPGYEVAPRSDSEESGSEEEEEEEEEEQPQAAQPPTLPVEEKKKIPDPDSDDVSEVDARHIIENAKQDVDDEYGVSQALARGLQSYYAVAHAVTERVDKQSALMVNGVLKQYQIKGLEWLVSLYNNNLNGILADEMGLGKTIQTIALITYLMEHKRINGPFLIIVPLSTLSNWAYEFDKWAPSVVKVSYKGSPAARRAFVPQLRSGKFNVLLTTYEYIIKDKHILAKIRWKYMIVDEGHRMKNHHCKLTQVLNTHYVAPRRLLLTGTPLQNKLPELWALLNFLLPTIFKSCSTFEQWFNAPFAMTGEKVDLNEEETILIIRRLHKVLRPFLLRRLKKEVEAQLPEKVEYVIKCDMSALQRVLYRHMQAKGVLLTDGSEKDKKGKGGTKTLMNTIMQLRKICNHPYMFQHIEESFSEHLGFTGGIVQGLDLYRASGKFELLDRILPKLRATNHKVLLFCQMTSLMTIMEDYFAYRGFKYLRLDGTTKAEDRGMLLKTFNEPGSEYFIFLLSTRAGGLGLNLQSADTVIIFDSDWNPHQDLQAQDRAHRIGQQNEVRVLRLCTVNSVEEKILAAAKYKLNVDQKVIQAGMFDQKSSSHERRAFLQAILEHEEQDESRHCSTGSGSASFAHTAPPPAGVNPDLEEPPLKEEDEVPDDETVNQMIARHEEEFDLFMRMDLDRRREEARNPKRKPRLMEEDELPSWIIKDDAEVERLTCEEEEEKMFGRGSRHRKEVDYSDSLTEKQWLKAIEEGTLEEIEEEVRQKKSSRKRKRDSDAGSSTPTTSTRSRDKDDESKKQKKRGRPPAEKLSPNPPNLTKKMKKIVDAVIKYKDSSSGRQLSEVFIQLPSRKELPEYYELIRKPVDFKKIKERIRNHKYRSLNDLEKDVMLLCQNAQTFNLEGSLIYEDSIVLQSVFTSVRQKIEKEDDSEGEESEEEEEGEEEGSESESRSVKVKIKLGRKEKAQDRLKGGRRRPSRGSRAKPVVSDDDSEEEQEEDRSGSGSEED

Columns and labels:
[1] = target: BRG1 (human (endogenous in MLS 402-91 and EWS TC-71)) (UniProt P51532); test: affinity purification with mass spectrometry; BRG1 IP: biotinylated BRG1 antibody on streptavidin magnetic beads, 50 µg nuclear extract of MLS 402-91 or of EWS TC-71 cells, 150 mM KCl, 10 mM Tris pH 7.5, overnight at 4 °C; TMT quantitative mass spectrometry; hits > 1.5-fold over the IgG control
[2] = target: FUS::DDIT3 (human (endogenous in MLS 402-91)); test: affinity purification with mass spectrometry; DDIT3 IP (pulls down FUS::DDIT3): biotinylated DDIT3 antibody on streptavidin magnetic beads, 50 µg nuclear extract of MLS 402-91 cells, 150 mM KCl, 10 mM Tris pH 7.5, overnight at 4 °C; TMT quantitative mass spectrometry; hits > 1.5-fold over the IgG control

Row | binding [1] | binding [2] | Binder
1 | binds | binds | FOXP1 (protein, UniProt Q9H334 1-677) MMQESGTETKSNGSAIQNGSGGSNHLLECGGLREGRSNGETPAVDIGAADLAHAQQQQQQALQVARQLLLQQQQQQQVSGLKSPKRNDKQPALQVPVSVAMMTPQVITPQQMQQILQQQVLSPQQLQVLLQQQQALMLQQQQLQEFYKKQQEQLQLQLLQQQHAGKQPKEQQQVATQQLAFQQQLLQMQQLQQQHLLSLQRQGLLTIQPGQPALPLQPLAQGMIPTELQQLWKEVTSAHTAEETTGNNHSSLDLTTTCVSSSAPSKTSLIMNPHASTNGQLSVHTPKRESLSHEEHPHSHPLYGHGVCKWPGCEAVCEDFQSFLKHLNSEHALDDRSTAQCRVQMQVVQQLELQLAKDKERLQAMMTHLHVKSTEPKAAPQPLNLVSSVTLSKSASEASPQSLPHTPTTPTAPLTPVTQGPSVITTTSMHTVGPIRRRYSDKYNVPISSADIAQNQEFYKNAEVRPPFTYASLIRQAILESPEKQLTLNEIYNWFTRMFAYFRRNAATWKNAVRHNLSLHKCFVRVENVKGAVWTVDEVEFQKRRPQKISGNPSLIKNMQSSHAYCTPLNAALQASMAENSIPLYTTASMGNPTLGNLASAIREELNGAMEHTNSNESDSSPGRSPMQAVHPVHVKEEPLDPEEAEGPLSLVTTANHSPDFDHDRDYEDEPVNEDME
2 | binds | binds | FOSL2 (protein, UniProt P15408 1-326) MYQDYPGNFDTSSRGSSGSPAHAESYSSGGGGQQKFRVDMPGSGSAFIPTINAITTSQDLQWMVQPTVITSMSNPYPRSHPYSPLPGLASVPGHMALPRPGVIKTIGTTVGRRRRDEQLSPEEEEKRRIRRERNKLAAAKCRNRRRELTEKLQAETEELEEEKSGLQKEIAELQKEKEKLEFMLVAHGPVCKISPEERRSPPAPGLQPMRSGGGSVGAVVVKQEPLEEDSPSSSSAGLDKAQRSVIKPISIAGGFYGEEPLHTPIVVTSTPAVTPGTSNLVFTYPSVLEQESPASPSESCSKAHRRSSSSGDQSSDSLNSPTLLAL
3 | binds |  | ZNF687 (protein, UniProt Q8N1G0 1-1237) MGDMKTPDFDDLLAAFDIPDIDANEAIHSGPEENEGPGGPGKPEPGVGSESEDTAAASAGDGPGVPAQASDHGLPPPDISVVSVIVKNTVCPEQSEALAGGSAGDGAQAAGVTKEGPVGPHRMQNGFGSPEPSLPGTPHSPAPPSGGTWKEKGMEGKTPLDLFAHFGPEPGDHSDPLPPSAPSPTREGALTPPPFPSSFELAQENGPGMQPPVSSPPLGALKQESCSPHHPQVLAQQGSGSSPKATDIPASASPPPVAGVPFFKQSPGHQSPLASPKVPVCQPLKEEDDDEGPVDKSSPGSPQSPSSGAEAADEDSNDSPASSSSRPLKVRIKTIKTSCGNITRTVTQVPSDPDPPAPLAEGAFLAEASLLKLSPATPTSEGPKVVSVQLGDGTRLKGTVLPVATIQNASTAMLMAASVARKAVVLPGGTATSPKMIAKNVLGLVPQALPKADGRAGLGTGGQKVNGASVVMVQPSKTATGPSTGGGTVISRTQSSLVEAFNKILNSKNLLPAYRPNLSPPAEAGLALPPTGYRCLECGDAFSLEKSLARHYDRRSMRIEVTCNHCARRLVFFNKCSLLLHAREHKDKGLVMQCSHLVMRPVALDQMVGQPDITPLLPVAVPPVSGPLALPALGKGEGAITSSAITTVAAEAPVLPLSTEPPAAPATSAYTCFRCLECKEQCRDKAGMAAHFQQLGPPAPGATSNVCPTCPMMLPNRCSFSAHQRMHKNRPPHVCPECGGNFLQANFQTHLREACLHVSRRVGYRCPSCSVVFGGVNSIKSHIQTSHCEVFHKCPICPMAFKSGPSAHAHLYSQHPSFQTQQAKLIYKCAMCDTVFTHKPLLSSHFDQHLLPQRVSVFKCPSCPLLFAQKRTMLEHLKNTHQSGRLEETAGKGAGGALLTPKTEPEELAVSQGGAAPATEESSSSSEEEEVPSSPEPPRPAKRPRRELGSKGLKGGGGGPGGWTCGLCHSWFPERDEYVAHMKKEHGKSVKKFPCRLCERSFCSAPSLRRHVRVNHEGIKRVYPCRYCTEGKRTFSSRLILEKHVQVRHGLQLGAQSPGRGTTLARGSSARAQGPGRKRRQSSDSCSEEPDSTTPPAKSPRGGPGSGGHGPLRYRSSSSTEQSLMMGLRVEDGAQQCLDCGLCFASPGSLSRHRFISHKKRRGVGKASALGLGDGEEEAPPSRSDPDGGDSPLPASGGPLTCKVCGKSCDSPLNLKTHFRTHGMAFIRARQGAVGDN

No constants are given. Whether binding was seen depends on the method and setting. In cells and extracts the contact can be indirect. A yes stands for co-enrichment or nearness to the bait. Other partners may have been found.
